Data from paper PMC12528649.
The exact form of at least one protein or probe is not confirmed. For part of these data: Negatives hold for the conditions tested.

Assays:
[1] = test system: GST-MaASR3 (Musa acuminata (AAA group)); assay: EMSA; details: unlabeled same-sequence probe reduced the shift; Thermo EMSA kit with biotin-labelled probe in binding buffer, acrylamide gel; buffer composition, pH and temperature not stated (refers to Wei et al.); recombinant protein; protein details: N-terminal GST (pGEX)
GST = assay: EMSA; details: GST alone; Thermo EMSA kit with biotin-labelled probe in binding buffer, acrylamide gel; buffer composition, pH and temperature not stated (refers to Wei et al.); recombinant protein; protein details: GST only
[2] = test system: GST-MaASR3 (Musa acuminata (AAA group)); assay: competition with a labelled probe; details: mutated competitor vs biotin-labelled N1, did not reduce the shift; Thermo EMSA kit with biotin-labelled probe in binding buffer, acrylamide gel; buffer composition, pH and temperature not stated (refers to Wei et al.); recombinant protein; protein details: N-terminal GST (pGEX)

Sequence	binding result [1]	binding result (GST)	binding result [2]
AACGAAAGAGACTAAGAGCCCATTCCATCAACGGCGCGC (double strand) [MaNIP1 promoter probe]	binds	no binding	
AACGAAAGAGACTAAGCTTTTCCTCCATCAACGGCGCGC (double strand) [MaNIP1 promoter mutant probe (competitor)]			no binding
